Reference: ChEMBL document CHEMBL4825705, “Iridoid Constituents of Viburnum brachybotryum” (J Nat Prod, 2021)
Structures can show the parent of a compound that is named as a salt.

Legend:
[1] = test system: A549; experiment: Cytotoxicity against human A549 cells assessed as cell growth inhibition measured after 48 hrs by MTT assay; type: functional, cell-based; settings: A549, 48 h
[2] = test system: HeLa; experiment: Cytotoxicity against human HeLa cells assessed as cell growth inhibition measured after 48 hrs by MTT assay; type: functional, cell-based

For `COc1cccc2c1C(=O)c1c(O)c3c(c(O)c1C2=O)C[C@@](O)(C(=O)CO)C[C@@H]3O[C@H]1C[C@H](N)[C@H](O)[C@H](C)O1` [DOXORUBICIN HYDROCHLORIDE], the IC50 [1] was 0.29 µM and the IC50 [2] was 0.18 µM.
